Assay results reported in PMC8674535.
Results are given in words; binding and its absence hold for the method and conditions named. Binding seen in cells or lysates may run through a third protein. Some binding calls cover weakened binding; strength is not graded here. Where a sequence is shown, tags or fusion partners need not be part of it.

Assays:
[1] = molecular target: T1, FLAG-SPRTN wild type (UniProt Q9H040); assay: co-IP; FLAG-SPRTN variants overexpressed in HEK293, captured from benzonase-digested total cell extracts on anti-FLAG M2 affinity gel or magnetic beads under native conditions (50 mM Tris-HCl pH 7.4, 150 mM NaCl, 0.5% NP-40), 4 h at 4°C, eluted with 3X FLAG peptide, western blot; cells untreated or treated with 1 mM FA for 1 h
T1 sequence: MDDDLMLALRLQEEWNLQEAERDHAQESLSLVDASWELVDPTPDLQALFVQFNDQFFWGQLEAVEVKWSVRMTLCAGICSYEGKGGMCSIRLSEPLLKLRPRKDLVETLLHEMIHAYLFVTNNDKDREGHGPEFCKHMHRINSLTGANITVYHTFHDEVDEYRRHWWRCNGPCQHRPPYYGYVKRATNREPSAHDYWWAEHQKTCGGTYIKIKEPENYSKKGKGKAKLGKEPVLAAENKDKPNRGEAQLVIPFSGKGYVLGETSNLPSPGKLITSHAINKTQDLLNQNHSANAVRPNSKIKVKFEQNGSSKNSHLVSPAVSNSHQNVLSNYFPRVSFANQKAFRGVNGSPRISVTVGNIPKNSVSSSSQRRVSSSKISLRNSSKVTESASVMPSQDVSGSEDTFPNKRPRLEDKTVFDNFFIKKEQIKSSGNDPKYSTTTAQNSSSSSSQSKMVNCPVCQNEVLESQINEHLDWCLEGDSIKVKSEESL

[2] = molecular target: T2, FLAG-SPRTN ΔUBZ (Δ452-482aa) (UniProt Q9H040); assay: as above
T2 sequence: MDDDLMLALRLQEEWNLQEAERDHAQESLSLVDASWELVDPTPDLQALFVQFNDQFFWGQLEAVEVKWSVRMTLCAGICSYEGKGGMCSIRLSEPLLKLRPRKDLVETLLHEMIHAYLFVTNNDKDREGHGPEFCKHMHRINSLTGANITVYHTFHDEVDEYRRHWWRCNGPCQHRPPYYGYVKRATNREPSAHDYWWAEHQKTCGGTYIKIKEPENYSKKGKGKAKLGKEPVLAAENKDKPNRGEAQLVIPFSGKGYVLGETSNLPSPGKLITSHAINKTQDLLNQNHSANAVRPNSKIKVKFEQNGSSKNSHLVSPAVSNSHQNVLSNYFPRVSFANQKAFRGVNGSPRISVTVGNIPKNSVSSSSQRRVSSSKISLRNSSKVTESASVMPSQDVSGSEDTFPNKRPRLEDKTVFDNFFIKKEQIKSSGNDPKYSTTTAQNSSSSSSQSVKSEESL

- binding [1]: binds
- binding [2]: binds
Substance: p97 (from UniProt P55072 1-806)
